{"source": "PubChem BioAssay AID504744 (Drosophila RNAi Screening Center, 2011)", "screen": "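Uncover factors, including feedback loops, that control dAkt activation in fly cells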 (primary screen)", "system": "Drosophila Kc167 cells", "reagent": "long dsRNA against Drosophila genes, 250 ng dsRNA per well of a 384-well plate", "timing": "3 days of knock-down, then overnight serum-free starvation before stimulation", "challenge": "bovine insulin at 387 nM for 10 minutes after 12 h without serum", "detection": "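In-cell antibody fluorescence for phospho-dAkt in each well over DNA-dye signal, with log2 residuals expressed as z-scores adjusted for cell count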", "active means": "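Hit in the insulin screen when the two-replicate mean z-score is more extreme than plus or minus 2.5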", "note": "The screen tested about 23,000 reagents; shown is a random part of those with a known target gene and a result. In the full data, 98 (0.43%) are marked active. 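Only hit calls are given; the phospho-dAkt signals, z-scores and hit direction were not deposited.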 A plus sign joins genes that one reagent is predicted to hit. No sequences are given here."}
The opening 2 records, to show the layout:
{"gene":"CG14811","DRSC id":"DRSC17962","call":"inactive"}
{"gene":"CG10257","DRSC id":"DRSC05985","call":"inactive"}

The listing, repeating the preview:
{"gene":"CG14811","DRSC id":"DRSC17962","call":"inactive"}
{"gene":"CG10257","DRSC id":"DRSC05985","call":"inactive"}
{"gene":"Dh44-R1 (Diuretic hormone 44 receptor 1)","DRSC id":"DRSC07172","call":"inactive"}
{"gene":"pre-mod(mdg4)-Z + mod(mdg4) + pre-mod(mdg4)-T","DRSC id":"DRSC13477","call":"inactive"}
{"gene":"pre-mod(mdg4)-Z + mod(mdg4) + pre-mod(mdg4)-T","DRSC id":"DRSC17001","call":"inactive"}
{"gene":"CG15027","DRSC id":"DRSC19608","call":"inactive"}
{"gene":"alpha-Est5 (alpha-Esterase-5)","DRSC id":"DRSC12617","call":"inactive"}
{"gene":"sti (sticky)","DRSC id":"DRSC09739","call":"inactive"}
{"gene":"sti (sticky)","DRSC id":"DRSC09740","call":"inactive"}
{"gene":"CG31673","DRSC id":"DRSC03207","call":"inactive"}
{"gene":"X11Lbeta","DRSC id":"DRSC18156","call":"inactive"}
{"gene":"X11Lbeta","DRSC id":"DRSC18158","call":"inactive"}
{"gene":"Tcs5 (Threonyl-carbamoyl synthesis 5)","DRSC id":"DRSC09774","call":"inactive"}
{"gene":"CG32845","DRSC id":"DRSC07867","call":"inactive"}
{"gene":"CG7829","DRSC id":"DRSC16322","call":"inactive"}
{"gene":"CG32099","DRSC id":"DRSC21352","call":"inactive"}
{"gene":"Bili (Band4.1 inhibitor LRP interactor)","DRSC id":"DRSC14405","call":"inactive"}
{"gene":"CG13041","DRSC id":"DRSC09922","call":"inactive"}
{"gene":"Mtp (Microsomal triacylglycerol transfer protein)","DRSC id":"DRSC03216","call":"inactive"}
{"gene":"lin-28","DRSC id":"DRSC10261","call":"inactive"}
{"gene":"CG13690","DRSC id":"DRSC00359","call":"inactive"}
{"gene":"CG10333","DRSC id":"DRSC02036","call":"inactive"}
{"gene":"CG42552 (retired record)","DRSC id":"DRSC11512","call":"inactive"}
